Laboratory results taken from patent US7256257B2, “Pentapeptide compounds and uses related thereto” (priority 2001, dated 2007).
Some entries share one result that the patent states for a list of compounds.

Columns and labels:
[1] = system: L2987 human lung adenocarcinoma cells; test: In vitro cytotoxicity, 3H-thymidine incorporation, L2987 cells; format: cell-based; settings: FIG. 18A
Experimental: (§1) To obtain the results shown in Table 4, the cells were exposed to drugs for 1-2 hours, and the cytotoxic effects were determined 72 hours later by the incorporation of ^3H-thymidine into DNA. Antigen expression was determined by flow cytometry and is expressed in terms of mean fluorescence intensity (MFI).
The cytotoxic effects of the mAb-S-36 conjugates on L2987 human lung adenocarcinoma cells (strongly BR96 antigen positive, weakly S2C6 antigen positive) and on Kato III human gastric carcinoma cells, (strongly BR96 antigen positive, S2C6 antigen negative) are shown in FIGS. 18A, 18B and 18C. These figures show the in vitro cytotoxicity of drugs and mAb-drug conjugates on (FIG. 18A) and (FIG. 18B) L2987 human lung adenoma cells, and (FIG. 18A) and (FIG. 18C) Kato III human gastric carcinoma cells. […] Cells were exposed to the conjugates for 2 hours, washed, and the cytotoxic effects were determined 3 days later using a thymidine incorporation assay.
These figures show the cytotoxic effects of auristatin E and auristatin E-containing conjugates on L2987 human lung adenocarcinoma cells (FIG. 19A); and various hematologic cell lines treated with AC10-S-40a (FIG. 19B). In all assays, cells were exposed to the drugs for 2 hours, washed, and the cytotoxic activities were measured 72 hours later using ^3H-thymidine incorporation.

[2] = system: Kato III human gastric carcinoma cells; test: In vitro cytotoxicity, 3H-thymidine incorporation, Kato III cells; format: cell-based; settings: FIG. 18A
Experimental: as §1
The cytotoxic effects of the mAb-S-36 conjugates on L2987 human lung adenocarcinoma cells (strongly BR96 antigen positive, weakly S2C6 antigen positive) and on Kato III human gastric carcinoma cells, (strongly BR96 antigen positive, S2C6 antigen negative) are shown in FIGS. 18A, 18B and 18C. These figures show the in vitro cytotoxicity of drugs and mAb-drug conjugates on (FIG. 18A) and (FIG. 18B) L2987 human lung adenoma cells, and (FIG. 18A) and (FIG. 18C) Kato III human gastric carcinoma cells. L2987 cells are positive for the antigens recognized by BR96 (LeY) and S2C6 (CD40), but express the LeY antigen at higher levels. Kato III cells are positive for the LeY antigen and negative for CD40. Cells were exposed to the conjugates for 2 hours, washed, and the cytotoxic effects were determined 3 days later using a thymidine incorporation assay.

Structure (SMILES)	fold more cytotoxic than doxorubicin [1]	fold more cytotoxic than doxorubicin [2]
CC[C@H](C)[C@@H]([C@@H](CC(=O)N1CCC[C@H]1[C@H](OC)[C@@H](C)C(=O)N[C@H](C)[C@@H](O)c1ccccc1)OC)N(C)C(=O)[C@@H](NC(=O)[C@H](C(C)C)N(C)C)C(C)C [Compound 29a, N,N-dimethyl-L-valyl-N-[(1S,2R)-4-[(2S)-2-[(1R,2R)-3-[[(1R,2S)-2-hydroxy-1-methyl-2-phenylethyl]amino]-1-methoxy-2-methyl-3-oxopropyl]-1-pyrrolidinyl]-2-methoxy-1-[(1S)-1-methylpropyl]-4-oxobutyl]-N-methyl-L-valinamide, reference compound]	at least 100 fold	at least 100 fold
CC[C@H](C)[C@@H]([C@@H](CC(=O)N1CCC[C@H]1[C@H](OC)[C@@H](C)C(=O)N[C@H](C)C(=O)c1ccccc1)OC)N(C)C(=O)[C@@H](NC(=O)[C@H](C(C)C)N(C)C)C(C)C [Compound 35, N,N-dimethyl-L-valyl-N-[(1S,2R)-4-[(2S)-2-[(1R,2R)-3-[[(1R)-2-oxo-1-methyl-2-phenylethyl]amino]-1-methoxy-2-methyl-3-oxopropyl]-1-pyrrolidinyl]-2-methoxy-1-[(1S)-1-methylpropyl]-4-oxobutyl]-N-methyl-L-valinamide]	at least 100 fold	at least 100 fold
